{
  "source": "PubChem BioAssay AID256",
  "about": "(DTP/NCI, 2004)",
  "test_system": "CD2F1 mice, L1210 leukemia ip, survival T/C",
  "experiment": "NCI In Vivo Anticancer Drug Screen. Data for tumor model L1210 Leukemia (intraperitoneal) in CD2F1 (CDF1) mice",
  "conditions": "T/C endpoint: mean survival time, higher T/C = longer survival",
  "summary_of_the_method": "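In this screen, transplantable tumors were grown in mice given either the compound or its vehicle. Results were expressed as the treated measurement relative to the control measurement.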",
  "key": {"[1]": {"conditions": "dose: 400.0 mg/kg/injection, schedule: Q04DX003 (ip), vehicle: saline"}},
  "note": "The list shows only some results of the screen, not a fair sample: it gathers tests that were run many times, whatever their T/C, doses with no T/C, and many T/C values between a quarter and a half above the control. Other doses and runs of a compound stand elsewhere. T/C is the treated group as % of the vehicle group. Some entries give survivors of the animals treated and no T/C: the source holds a T/C of zero for them, seemingly a mark for toxic or unscored doses. Some survivor counts are full or nearly so, which does not show that the dose was tolerated: the source hardly ever lists a survival T/C far under the control, and the zero likely stands for such cases as well. Counts of survivors are from the toxicity check (mostly the fifth day) where no day follows; animals may have died later. Schedules are NCI's codes, read here as Q, the interval in days (D) or hours (H), X, the number of doses. Where survival is the endpoint, the PubChem record calls one and a half times the control and up active, and a quarter to a half above the control has no call in these data; cut-offs in other NCI protocols can differ. Some entries hold several experiments; the values are given in rising order.",
  "data": [
    {"smiles": "CS(=O)(=O)OCCN(CCOS(C)(=O)=O)c1ccc(N=Nc2ccccc2C(=O)O)cc1", "values": [
      {"measurement": "T/C", "setting": "dose: 1.56 mg/kg/injection, schedule: Q01DX009 (ip), vehicle: Klucel (hydroxypropylcellulose) (HPC)", "result": "125 % of control"},
      {"measurement": "T/C", "setting": "dose: 3.12 mg/kg/injection, schedule: Q01DX009 (ip), vehicle: Klucel (hydroxypropylcellulose) (HPC)", "result": "131 % of control"},
      {"measurement": "T/C", "setting": "dose: 6.25 mg/kg/injection, schedule: Q01DX009 (ip), vehicle: Klucel (hydroxypropylcellulose) (HPC)", "result": "127 and 144 % of control"},
      {"measurement": "survivor count", "setting": "dose: 25.0 mg/kg/injection, schedule: Q01DX009 (ip), vehicle: Klucel (hydroxypropylcellulose) (HPC)", "result": "6 of 6"},
      {"measurement": "survivor count", "setting": "dose: 50.0 mg/kg/injection, schedule: Q01DX009 (ip), vehicle: Klucel (hydroxypropylcellulose) (HPC)", "result": "2 of 3"},
      {"measurement": "survivor count", "setting": "dose: 100.0 mg/kg/injection, schedule: Q01DX009 (ip), vehicle: Klucel (hydroxypropylcellulose) (HPC)", "result": "0 of 3"},
      {"measurement": "survivor count", "setting": "dose: 200.0 mg/kg/injection, schedule: Q01DX009 (ip), vehicle: Klucel (hydroxypropylcellulose) (HPC)", "result": "0 of 3"}
    ]},
    {"smiles": "C1=CC(=C(C2CCC(Nc3ccccc3)CC2)C2CCC(Nc3ccccc3)CC2)C=CC1=Nc1ccccc1", "note": "(stereo not given)", "values": [
      {"measurement": "survivor count", "setting": "[1]", "result": "3 of 6"}
    ]},
    {"smiles": "O=[As](O)(O)CC(Br)CBr", "note": "(stereo not given)", "values": [
      {"measurement": "survivor count", "setting": "dose: 400.0 mg/kg/injection, schedule: Q01DX009 (ip), vehicle: saline with Tween-80", "result": "2 of 6"}
    ]},
    {"smiles": "O=C1NC(=O)C2(CCc3ccc(N(CCCl)CCCl)cc32)N1", "note": "(stereo not given)", "values": [
      {"measurement": "T/C", "setting": "dose: 12.5 mg/kg/injection, schedule: Q01DX009 (ip), vehicle: Klucel (hydroxypropylcellulose) (HPC)", "result": "126 % of control"}
    ]},
    {"smiles": "CC1CN(CCC#N)C(=O)S1(=O)=O", "note": "(stereo not given)", "values": [
      {"measurement": "survivor count", "setting": "dose: 150.0 mg/kg/injection, schedule: Q01DX001 (ip), vehicle: other", "result": "2 of 6"},
      {"measurement": "survivor count", "setting": "dose: 300.0 mg/kg/injection, schedule: Q01DX001 (ip), vehicle: other", "result": "0 of 6"}
    ]},
    {"smiles": "OCC1OC(n2cnc3c([Se]Cc4ccccn4)ncnc32)C(O)C1O", "note": "(stereo not given)", "values": [
      {"measurement": "survivor count", "setting": "dose: 25.0 mg/kg/injection, schedule: Q01DX005 (ip), vehicle: saline", "result": "3 of 6"},
      {"measurement": "survivor count", "setting": "dose: 50.0 mg/kg/injection, schedule: Q01DX005 (ip), vehicle: saline", "result": "0 of 6"}
    ]},
    {"smiles": "CCCCNC(C)(C)C(SS)c1ccc(Cl)cc1", "note": "(stereo not given)", "values": [
      {"measurement": "survivor count", "setting": "[1]", "result": "1 of 6"}
    ]}
  ]
}
